Measurements published in the supplement of paper PMC3334620.
In all, about 33,000 sequences were measured (“E-score (-0.5 to 0.5)”: median about -0.015, highest 2% from about 0.3 on). This is one part of the list.

Target: T1, Abf1 (UniProt P14164)
T1 sequence: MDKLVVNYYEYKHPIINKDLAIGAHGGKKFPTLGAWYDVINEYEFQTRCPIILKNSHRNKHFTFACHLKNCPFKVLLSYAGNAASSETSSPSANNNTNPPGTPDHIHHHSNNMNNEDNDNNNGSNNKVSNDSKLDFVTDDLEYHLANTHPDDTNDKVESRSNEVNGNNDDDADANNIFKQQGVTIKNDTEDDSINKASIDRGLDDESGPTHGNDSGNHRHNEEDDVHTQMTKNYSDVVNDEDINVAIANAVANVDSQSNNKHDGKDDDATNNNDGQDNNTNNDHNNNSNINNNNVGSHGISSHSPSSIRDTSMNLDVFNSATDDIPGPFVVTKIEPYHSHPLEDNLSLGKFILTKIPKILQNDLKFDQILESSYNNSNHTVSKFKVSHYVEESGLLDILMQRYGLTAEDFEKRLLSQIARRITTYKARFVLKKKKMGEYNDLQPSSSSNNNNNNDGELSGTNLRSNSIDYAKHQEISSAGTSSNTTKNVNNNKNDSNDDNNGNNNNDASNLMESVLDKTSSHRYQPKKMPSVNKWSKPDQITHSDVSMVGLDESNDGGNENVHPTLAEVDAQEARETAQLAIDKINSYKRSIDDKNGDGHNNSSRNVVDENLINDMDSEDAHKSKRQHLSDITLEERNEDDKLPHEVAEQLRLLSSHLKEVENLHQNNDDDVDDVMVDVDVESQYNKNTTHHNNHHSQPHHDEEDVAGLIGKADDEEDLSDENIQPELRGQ
Assay: PBM E-score (8-mer binding enrichment) (E-score (-0.5 to 0.5)); higher = stronger / more preferred TF binding
Settings: protein concentration: 200 nM; construct: GST-full length
Procedure, shortened: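 GST-tagged yeast TFs (full-length or DNA-binding domain) were made by PURExpress in vitro transcription/translation and applied at about 100-200 nM to universal all-10-mer Agilent arrays. The arrays were made double-stranded by primer extension, on fresh or once-stripped slides. Bound protein was detected with fluorescent anti-GST, and scans were normalised with masliner. Each ungapped eight-base word, pooled with its reverse complement, received an E-score (modified Wilcoxon-Mann-Whitney statistic) from the Universal PBM Analysis Suite.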

Sequence | PBM E-score
ATAAAAGG | 0.0301
TCTATTAA | 0.0568
AGTCCAAG | -0.107
GGAAAGAC | -0.127
ATCCTCCA | 0.0824
CTATAGGA | -0.0338
TCTGTTCA | 0.0997
GCTGTGAC | 0.00913
ACGACTAC | 0.329
CTACTACA | 0.0338
ACTATGAG | -0.0276
CGATTGAG | 0.0474
GAATTATA | 0.106
CAACAGTG | 0.0834
ACACCCCA | -0.187
GGAAGAAC | -0.098
AATGTCGA | 0.146
ACCACGGC | 0.00557
CGTTCGAG | 0.121
AGGAGTCA | 0.00134
CGACGACA | 0.311
ACACTACG | 0.0258

Pulled one by one from the list above:
Sequence | PBM E-score
ATAAAAGG | 0.0301
ATCCTCCA | 0.0824
CGACGACA | 0.311
TCTATTAA | 0.0568

Remaining list, next part

Sequence | PBM E-score
CAATTGTC | 0.0242
AGTGTCGA | 0.0762
GACTTATA | 0.107
GCATTGTA | -0.0355
ATCTCGGA | 0.114
AAATGCGA | 0.0734
GGCGACGA | 0.194
TTCATAAA | 0.0402
ACAGGAAC | -0.058
CGGGCTTC | -0.21
CCGCCTCG | 0.0539
AGGTTGTA | 0.0799
ACCCACGG | 0.189
ACGTGGCA | -0.181
ACGGCTAA | 0.244
GCAGTCGA | -0.201
TAACTTAA | 0.127
CGCGCCCA | -0.0778
TATCAACA | 0.169
GGCGGTGA | 0.184
ACCTTTAC | -0.0849
GAAATAAC | 0.113

Sequence | PBM E-score
CACGAGTG | 0.0916
AACAGTGC | -0.166
CTTAATAA | 0.0641
GAGACAAA | 0.0148
ACAGAAAG | -0.0338
CTCAAAGA | -0.088
ATATGCAT | 0.021
AGCACATG | 0.0444
CAGGTCCC | -0.205
GTATAGTA | 0.129
AGAGTGTC | -0.0328
GAATATAC | 0.0463
CGATTGGA | -0.00974
GTCGTCAA | 0.222
ATGAAGTA | 0.0372
AGTTCAGC | -0.0941
CCTCACAA | -0.12
AATCTCGT | 0.156
TAAAAATA | 0.162
AACAACAG | -0.158
CAAGGACA | -0.0527
AATCGACG | 0.217

Sequence | PBM E-score
ATATCTTG | 0.208
GGGCACTA | -0.00085
ACTATAAA | 0.0924
ACCGGACG | -0.0917
CGTATTGA | 0.307
AAGAATGC | -0.0612
ACCCTCCG | -0.144
CATAGTCG | 0.111
CTGGTAGC | -0.0656
ATATGGAA | -0.00864
CGTCAAAA | 0.244
GTGGTAAC | 0.177
AGCGCTTG | -0.119
CGCAATAA | 0.0869
ATGTGTGC | -0.128
CTTGCGGA | -0.00084
TAGTGCAA | 0.113
CATAACGA | 0.0819
AAGGGAAC | -0.341
ACGGCCGT | 0.121
